Tested on: NCI-60 tumour cell line panel
Experiment: COMPARE analysis of NCI-60 response patterns
Parameters: species or system human
Details: similarity of NCI-60 antitumour activity; ρ >0.7 significant

Row | Structure (SMILES) | matrix COMPARE coefficient (ρ value) with compound 1 | matrix COMPARE coefficient (ρ value) with compound 3 | matrix COMPARE coefficient (ρ value) with compound 4 | matrix COMPARE coefficient (ρ value) with compound 5 | matrix COMPARE coefficient (ρ value) with compound 6
1 | C=C(CN1CCN(c2ccccc2C(F)(F)F)CC1)c1ccc(C(=O)Nc2ccccc2N)cc1 [Compound 3, N-(2-aminophenyl)-4–(3-(4–(2-(trifluoromethyl)phenyl)piperazin-1-yl)prop-1-en-2-yl)benzamide] | 0.13 | – | – | – | –
2 | C=C(CN1CCN(c2cccc(C(F)(F)F)c2)CC1)c1ccc(C(=O)Nc2ccccc2N)cc1 [Compound 4, N-(2-aminophenyl)-4–(3-(4–(3-(trifluoromethyl)phenyl)piperazin-1-yl)prop-1-en-2-yl)benzamide] | – | 0.37 | – | – | –
3 | C=C(CN1CCN(c2ccc(C(F)(F)F)cc2)CC1)c1ccc(C(=O)Nc2ccccc2N)cc1 [Compound 5, N-(2-aminophenyl)-4–(3-(4–(4-(trifluoromethyl)phenyl)piperazin-1-yl)prop-1-en-2-yl)benzamide] | – | 0.80 | 0.31 | – | –
4 | C=C(CN1CCN(c2ccccn2)CC1)c1ccc(C(=O)Nc2ccccc2N)cc1 [Compound 6, N-(2-aminophenyl)-4–(3-(4-(pyridin-2-yl)piperazin-1-yl)prop-1-en-2-yl)benzamide] | – | 0.10 | 0.20 | 0.06 | –
5 | C=C(CN1CCN(c2cccc(C(F)(F)F)n2)CC1)c1ccc(C(=O)Nc2ccccc2N)cc1 [Compound 7, N-(2-aminophenyl)-4–(3-(4–(6-(trifluoromethyl)pyridin-2-yl)piperazin-1-yl)prop-1-en-2-yl)benzamide] | 0.15 | 0.32 | 0.35 | 0.18 | 0.09
